Assay results taken from article PMC7455122.
No constants are given. Whether binding was seen depends on the method and setting. In cells and extracts the contact can be indirect. Some binding calls cover weakened binding; strength is not graded here. Where a sequence is shown, tags or fusion partners need not be part of it.

Amino acid sequences for entries named in this document (tags omitted). Residues count along the entry.
UniProt P98161, residues 24-4303: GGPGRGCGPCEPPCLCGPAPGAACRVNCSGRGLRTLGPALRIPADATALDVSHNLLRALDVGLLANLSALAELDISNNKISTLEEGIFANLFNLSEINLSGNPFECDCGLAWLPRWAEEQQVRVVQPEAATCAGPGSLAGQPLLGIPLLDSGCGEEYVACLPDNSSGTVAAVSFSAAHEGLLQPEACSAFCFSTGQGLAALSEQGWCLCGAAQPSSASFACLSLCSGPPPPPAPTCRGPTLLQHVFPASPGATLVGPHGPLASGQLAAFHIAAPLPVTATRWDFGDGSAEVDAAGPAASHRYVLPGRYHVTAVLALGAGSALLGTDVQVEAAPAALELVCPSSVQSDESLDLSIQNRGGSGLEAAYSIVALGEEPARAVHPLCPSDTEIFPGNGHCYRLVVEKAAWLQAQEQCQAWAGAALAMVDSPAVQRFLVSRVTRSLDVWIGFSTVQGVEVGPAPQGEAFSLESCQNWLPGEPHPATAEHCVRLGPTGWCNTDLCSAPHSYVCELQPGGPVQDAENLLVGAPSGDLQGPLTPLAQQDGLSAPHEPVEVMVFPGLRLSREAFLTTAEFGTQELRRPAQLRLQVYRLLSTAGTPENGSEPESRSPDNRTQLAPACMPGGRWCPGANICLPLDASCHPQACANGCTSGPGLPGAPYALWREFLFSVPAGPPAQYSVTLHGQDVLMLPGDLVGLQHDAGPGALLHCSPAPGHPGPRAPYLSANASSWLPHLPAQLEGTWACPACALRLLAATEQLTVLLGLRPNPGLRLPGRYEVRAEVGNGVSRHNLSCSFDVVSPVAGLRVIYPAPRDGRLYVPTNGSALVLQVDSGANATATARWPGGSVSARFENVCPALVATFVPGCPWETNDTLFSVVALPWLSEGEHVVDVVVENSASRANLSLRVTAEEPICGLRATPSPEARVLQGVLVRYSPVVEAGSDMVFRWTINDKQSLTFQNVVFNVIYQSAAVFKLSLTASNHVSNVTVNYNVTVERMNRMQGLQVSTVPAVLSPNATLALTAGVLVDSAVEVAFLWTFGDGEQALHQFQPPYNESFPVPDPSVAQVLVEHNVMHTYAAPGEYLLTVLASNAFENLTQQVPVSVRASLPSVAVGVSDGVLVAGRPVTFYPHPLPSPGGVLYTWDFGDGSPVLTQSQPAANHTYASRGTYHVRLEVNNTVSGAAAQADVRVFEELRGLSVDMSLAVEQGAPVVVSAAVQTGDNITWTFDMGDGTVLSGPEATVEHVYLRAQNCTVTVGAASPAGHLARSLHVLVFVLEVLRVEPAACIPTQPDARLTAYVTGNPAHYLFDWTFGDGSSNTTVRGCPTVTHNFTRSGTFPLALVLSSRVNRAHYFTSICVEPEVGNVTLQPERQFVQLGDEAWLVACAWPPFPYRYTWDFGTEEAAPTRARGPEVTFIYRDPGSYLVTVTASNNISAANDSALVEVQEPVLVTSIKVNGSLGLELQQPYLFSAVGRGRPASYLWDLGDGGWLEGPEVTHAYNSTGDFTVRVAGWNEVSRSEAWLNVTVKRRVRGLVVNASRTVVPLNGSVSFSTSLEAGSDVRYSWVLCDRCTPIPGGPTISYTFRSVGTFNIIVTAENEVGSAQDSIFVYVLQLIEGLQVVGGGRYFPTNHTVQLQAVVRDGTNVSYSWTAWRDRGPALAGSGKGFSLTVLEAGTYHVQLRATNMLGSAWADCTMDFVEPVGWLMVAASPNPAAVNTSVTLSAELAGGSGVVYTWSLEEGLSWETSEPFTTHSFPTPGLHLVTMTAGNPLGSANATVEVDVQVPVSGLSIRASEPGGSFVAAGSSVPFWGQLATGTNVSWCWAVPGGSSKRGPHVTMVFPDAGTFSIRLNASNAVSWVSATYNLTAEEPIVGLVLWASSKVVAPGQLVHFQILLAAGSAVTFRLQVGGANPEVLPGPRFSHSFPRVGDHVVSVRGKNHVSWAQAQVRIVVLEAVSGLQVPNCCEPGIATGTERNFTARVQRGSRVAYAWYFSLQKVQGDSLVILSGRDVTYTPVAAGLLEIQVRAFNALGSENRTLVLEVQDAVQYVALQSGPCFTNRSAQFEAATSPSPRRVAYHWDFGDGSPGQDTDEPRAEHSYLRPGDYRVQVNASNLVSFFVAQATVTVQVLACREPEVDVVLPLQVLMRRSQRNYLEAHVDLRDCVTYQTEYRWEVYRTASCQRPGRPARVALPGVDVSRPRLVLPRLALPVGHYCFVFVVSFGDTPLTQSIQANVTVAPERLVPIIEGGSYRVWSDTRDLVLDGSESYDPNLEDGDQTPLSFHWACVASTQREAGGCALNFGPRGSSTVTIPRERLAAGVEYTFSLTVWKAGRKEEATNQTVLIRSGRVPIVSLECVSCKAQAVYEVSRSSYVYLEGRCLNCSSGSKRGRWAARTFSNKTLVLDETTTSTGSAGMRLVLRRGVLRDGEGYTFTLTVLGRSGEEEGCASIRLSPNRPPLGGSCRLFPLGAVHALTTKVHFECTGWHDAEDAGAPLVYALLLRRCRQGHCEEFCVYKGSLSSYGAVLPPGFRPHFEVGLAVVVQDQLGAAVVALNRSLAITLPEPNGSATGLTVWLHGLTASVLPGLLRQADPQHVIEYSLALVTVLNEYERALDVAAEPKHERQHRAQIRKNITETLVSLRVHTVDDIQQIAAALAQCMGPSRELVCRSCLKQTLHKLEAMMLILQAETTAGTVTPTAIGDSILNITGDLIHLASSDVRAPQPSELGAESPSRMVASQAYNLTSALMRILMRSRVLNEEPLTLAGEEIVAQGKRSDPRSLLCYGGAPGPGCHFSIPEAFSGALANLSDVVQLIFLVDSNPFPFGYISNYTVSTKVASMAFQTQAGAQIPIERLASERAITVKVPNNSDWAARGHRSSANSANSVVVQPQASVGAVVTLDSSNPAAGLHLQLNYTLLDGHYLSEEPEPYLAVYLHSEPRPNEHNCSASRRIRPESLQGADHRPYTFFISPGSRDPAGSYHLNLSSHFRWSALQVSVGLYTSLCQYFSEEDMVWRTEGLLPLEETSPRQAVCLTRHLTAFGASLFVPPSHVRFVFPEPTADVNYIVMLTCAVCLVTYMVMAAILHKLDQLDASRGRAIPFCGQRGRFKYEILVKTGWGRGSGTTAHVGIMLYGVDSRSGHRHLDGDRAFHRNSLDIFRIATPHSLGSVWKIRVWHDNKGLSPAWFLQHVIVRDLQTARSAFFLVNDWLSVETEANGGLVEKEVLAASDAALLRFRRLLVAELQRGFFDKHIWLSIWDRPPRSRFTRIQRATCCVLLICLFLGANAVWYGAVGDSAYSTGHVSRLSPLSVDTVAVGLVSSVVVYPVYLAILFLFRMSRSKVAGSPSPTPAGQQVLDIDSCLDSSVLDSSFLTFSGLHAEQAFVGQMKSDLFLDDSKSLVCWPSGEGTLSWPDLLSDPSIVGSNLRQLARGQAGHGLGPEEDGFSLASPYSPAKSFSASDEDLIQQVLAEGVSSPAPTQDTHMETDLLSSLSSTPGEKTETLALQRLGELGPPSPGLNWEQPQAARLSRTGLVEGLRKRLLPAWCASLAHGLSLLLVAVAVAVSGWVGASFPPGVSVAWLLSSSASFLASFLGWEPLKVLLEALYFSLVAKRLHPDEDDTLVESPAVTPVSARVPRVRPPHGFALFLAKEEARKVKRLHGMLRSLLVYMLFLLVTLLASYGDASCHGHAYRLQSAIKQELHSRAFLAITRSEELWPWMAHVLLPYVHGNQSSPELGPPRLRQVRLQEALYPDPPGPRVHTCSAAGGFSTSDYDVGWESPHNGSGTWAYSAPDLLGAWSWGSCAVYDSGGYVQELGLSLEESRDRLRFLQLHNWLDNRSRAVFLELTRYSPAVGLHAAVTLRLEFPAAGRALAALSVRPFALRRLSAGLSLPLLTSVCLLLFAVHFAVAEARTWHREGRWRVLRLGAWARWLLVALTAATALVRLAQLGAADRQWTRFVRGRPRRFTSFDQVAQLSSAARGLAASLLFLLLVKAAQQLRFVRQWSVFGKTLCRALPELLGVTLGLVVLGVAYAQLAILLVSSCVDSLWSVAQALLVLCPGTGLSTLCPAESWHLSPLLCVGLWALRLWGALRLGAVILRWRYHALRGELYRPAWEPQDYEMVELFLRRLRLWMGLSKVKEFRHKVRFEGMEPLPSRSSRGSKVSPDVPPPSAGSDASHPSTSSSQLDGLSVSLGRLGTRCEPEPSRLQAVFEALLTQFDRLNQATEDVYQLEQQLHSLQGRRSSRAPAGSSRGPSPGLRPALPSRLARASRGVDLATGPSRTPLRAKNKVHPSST

Target: full-length V5-PC1 (polycystin-1) (UniProt P98161)
Assay: co-IP; FLAG-ARHGAP35 and V5-PC1 coexpressed in HEK293 cells; lysis buffer 50 mM Tris, 0.14 M NaCl, 1% Triton X-100, 0.5% NP40; which protein was precipitated is not told

binding: binds
B1: full-length FLAG-ARHGAP35 (protein, UniProt Q9NRY4 1-1499)
chain: MMMARKQDVRIPTYNISVVGLSGTEKEKGQCGIGKSCLCNRFVRPSADEFHLDHTSVLSTSDFGGRVVNNDHFLYWGEVSRSLEDCVECKMHIVEQTEFIDDQTFQPHRSTALQPYIKRAAATKLASAEKLMYFCTDQLGLEQDFEQKQMPDGKLLVDGFLLGIDVSRGMNRNFDDQLKFVSNLYNQLAKTKKPIVVVLTKCDEGVERYIRDAHTFALSKKNLQVVETSARSNVNVDLAFSTLVQLIDKSRGKTKIIPYFEALKQQSQQIATAKDKYEWLVSRIVKNHNENWLSVSRKMQASPEYQDYVYLEGTQKAKKLFLQHIHRLKHEHIERRRKLYLAALPLAFEALIPNLDEIDHLSCIKAKKLLETKPEFLKWFVVLEETPWDATSHIDNMENERIPFDLMDTVPAEQLYEAHLEKLRNERKRVEMRRAFKENLETSPFITPGKPWEEARSFIMNEDFYQWLEESVYMDIYGKHQKQIIDKAKEEFQELLLEYSELFYELELDAKPSKEKMGVIQDVLGEEQRFKALQKLQAERDALILKHIHFVYHPTKETCPSCPACVDAKIEHLISSRFIRPSDRNQKNSLSDPNIDRINLVILGKDGLARELANEIRALCTNDDKYVIDGKMYELSLRPIEGNVRLPVNSFQTPTFQPHGCLCLYNSKESLSYVVESIEKSRESTLGRRDNHLVHLPLTLILVNKRGDTSGETLHSLIQQGQQIASKLQCVFLDPASAGIGYGRNINEKQISQVLKGLLDSKRNLNLVSSTASIKDLADVDLRIVMCLMCGDPFSADDILFPVLQSQTCKSSHCGSNNSVLLELPIGLHKKRIELSVLSYHSSFSIRKSRLVHGYIVFYSAKRKASLAMLRAFLCEVQDIIPIQLVALTDGAVDVLDNDLSREQLTEGEEIAQEIDGRFTSIPCSQPQHKLEIFHPFFKDVVEKKNIIEATHMYDNAAEACSTTEEVFNSPRAGSPLCNSNLQDSEEDIEPSYSLFREDTSLPSLSKDHSKLSMELEGNDGLSFIMSNFESKLNNKVPPPVKPKPPVHFEITKGDLSYLDQGHRDGQRKSVSSSPWLPQDGFDPSDYAEPMDAVVKPRNEEENIYSVPHDSTQGKIITIRNINKAQSNGSGNGSDSEMDTSSLERGRKVSIVSKPVLYRTRCTRLGRFASYRTSFSVGSDDELGPIRKKEEDQASQGYKGDNAVIPYETDEDPRRRNILRSLRRNTKKPKPKPRPSITKATWESNYFGVPLTTVVTPEKPIPIFIERCIEYIEATGLSTEGIYRVSGNKSEMESLQRQFDQDHNLDLAEKDFTVNTVAGAMKSFFSELPDPLVPYNMQIDLVEAHKINDREQKLHALKEVLKKFPKENHEVFKYVISHLNKVSHNNKVNLMTSENLSICFWPTLMRPDFSTMDALTATRTYQTIIELFIQQCPFFFYNRPITEPPGARPSSPSAVASTVPFLTSTPVTSQPSPPQSPPPTPQSPMQPLLPSQLQAEHTL
